No constants are given. Whether binding was seen depends on the method and setting. In cells and extracts the contact can be indirect. Some entries that bind do so weakly or less than the wild type.
Target: WT G-CSFR/PDGFR chimeric receptor (human) (UniProt Q99062+P09619)
Assay: co-immunoprecipitation with Ab-X from G-CSF-stimulated transfected Rat-1 cells, anti-SHP-2 immunoblot

Protein sequences, listed by entry. Tags and fused reporters are not part of them. Lines headed by an entry give the natural chain unless they say otherwise; changes in a name come on top.
UniProt Q99062: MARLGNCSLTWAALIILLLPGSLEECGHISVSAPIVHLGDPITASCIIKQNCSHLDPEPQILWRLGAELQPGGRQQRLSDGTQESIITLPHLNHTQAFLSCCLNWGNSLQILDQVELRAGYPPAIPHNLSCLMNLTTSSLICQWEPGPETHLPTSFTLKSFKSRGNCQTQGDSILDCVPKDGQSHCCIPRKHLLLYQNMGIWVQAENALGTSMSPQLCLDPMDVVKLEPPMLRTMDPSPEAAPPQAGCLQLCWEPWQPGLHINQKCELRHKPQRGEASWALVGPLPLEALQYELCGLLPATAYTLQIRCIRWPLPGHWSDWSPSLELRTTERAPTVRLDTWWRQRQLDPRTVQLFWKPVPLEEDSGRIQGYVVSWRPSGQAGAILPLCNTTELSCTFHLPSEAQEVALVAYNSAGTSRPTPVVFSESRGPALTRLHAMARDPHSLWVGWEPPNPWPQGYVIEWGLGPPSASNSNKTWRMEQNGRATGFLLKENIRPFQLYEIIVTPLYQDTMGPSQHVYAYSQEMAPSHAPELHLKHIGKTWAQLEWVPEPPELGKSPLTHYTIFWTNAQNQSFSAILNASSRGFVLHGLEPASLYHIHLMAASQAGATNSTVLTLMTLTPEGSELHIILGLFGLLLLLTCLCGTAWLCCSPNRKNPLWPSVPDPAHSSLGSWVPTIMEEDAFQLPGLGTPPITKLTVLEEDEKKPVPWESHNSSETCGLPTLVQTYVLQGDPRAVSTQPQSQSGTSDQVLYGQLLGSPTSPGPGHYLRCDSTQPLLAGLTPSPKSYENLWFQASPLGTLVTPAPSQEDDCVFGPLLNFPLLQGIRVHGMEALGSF

For “SHP-2 (from UniProt P41499 2-593) (enzyme)”, the binding was “binds”.
